Source: PubChem BioAssay AID248 (DTP/NCI, 2004)
The list shows only some results of the screen, not a fair sample: it is rich in T/C values a quarter to a half above the control, in often repeated tests (any T/C) and in doses without a T/C. Further doses and runs are listed elsewhere. T/C: endpoint of the treated group in % of that of the vehicle group. Some entries give survivors of the animals treated and no T/C: the source holds a T/C of zero for them, seemingly a mark for toxic or unscored doses. Some survivor counts are full or nearly so, which does not show that the dose was tolerated: survival well below the control is almost never listed, so the zero probably covers shortened survival too. Counts of survivors are from the toxicity check (mostly the fifth day) where no day follows; animals may have died later. Schedule codes are those of the source, read here as Q, the interval in days (D) or hours (H), X, the number of doses. Some schedule codes hold Z or #, which are not explained here. Some structures stand for samples that the source files as different forms (salt, stereo form or complex); doses refer to the form tested. For survival time, the PubChem record calls one and a half times the control and up active, and a quarter to a half above the control has no call in these data; cut-offs in other NCI protocols can differ.

Tested on: L1210 leukemia ip in BDF1 mice, survival T/C
Assay: NCI In Vivo Anticancer Drug Screen. Data for tumor model L1210 Leukemia (intraperitoneal) in B6D2F1 (BDF1) mice
Settings: T/C endpoint: mean survival time, higher T/C = longer survival
[1] = dose: 400.0 mg/kg/injection, schedule: Q04DX003 (ip), vehicle: Klucel (hydroxypropylcellulose) (HPC)
[2] = dose: 400.0 mg/kg/injection, schedule: Q04DX002 (ip), vehicle: saline with Tween-80
[3] = dose: 40.0 mg/kg/injection, schedule: Q01DX001 (ip), vehicle: saline
[4] = dose: 150.0 mg/kg/injection, schedule: Q01DX001 (ip), vehicle: saline
[5] = dose: 300.0 mg/kg/injection, schedule: Q01DX001 (ip), vehicle: saline
[6] = dose: 400.0 mg/kg/injection, schedule: Q01DX009 (ip), vehicle: saline with Tween-80
[7] = dose: 200.0 mg/kg/injection, schedule: Q04DX003 (ip), vehicle: Klucel (hydroxypropylcellulose) (HPC)

CCOC(=O)CNC(=O)C1OC(n2cnc3c(N)ncnc32)C(O)C1O (centres undefined)
survivor count (dose: 25.0 mg/kg/injection, schedule: Q01DX009 (ip), vehicle: saline): 2 of 6 | survivor count (dose: 50.0 mg/kg/injection, schedule: Q01DX005 (ip), vehicle: saline): 0 of 6 | survivor count (dose: 100.0 mg/kg/injection, schedule: Q01DX005 (ip), vehicle: saline): 0 of 6 | survivor count (dose: 200.0 mg/kg/injection, schedule: Q01DX005 (ip), vehicle: saline): 0 of 6

O=[N+]([O-])c1ccc(N=Nc2ccc(O)cc2)c([N+](=O)[O-])c1
survivor count (dose: 400.0 mg/kg/injection, schedule: Q01DX001 (ip), vehicle: carboxymethylcellulose (CMC)): 0 of 4

Cc1ccc2cccc(O)c2n1
survivor count (dose: 50.0 mg/kg/injection, schedule: Q04DX002 (ip), vehicle: Klucel (hydroxypropylcellulose) (HPC)): 3 of 3 | survivor count (dose: 100.0 mg/kg/injection, schedule: Q04DX002 (ip), vehicle: Klucel (hydroxypropylcellulose) (HPC)): 3 of 3 | survivor count (dose: 200.0 mg/kg/injection, schedule: Q04DX002 (ip), vehicle: Klucel (hydroxypropylcellulose) (HPC)): 3 of 3

NNC(N)=S
survivor count (dose: 25.0 mg/kg/injection, schedule: Q04DX003 (ip), vehicle: saline): 1 of 6 | survivor count (dose: 100.0 mg/kg/injection, schedule: Q04DX002 (ip), vehicle: saline): 0 of 3 | survivor count (dose: 200.0 mg/kg/injection, schedule: Q04DX002 (ip), vehicle: saline): 0 of 3 | survivor count (dose: 400.0 mg/kg/injection, schedule: Q04DX002 (ip), vehicle: saline): 0 of 3

CCN(CC)N=Nc1ccccc1-c1nc(N)nc(N)n1
survivor count [1]: 2 of 6

O=C1NC(=O)C(=Cc2ccccc2)C(=O)N1
survivor count (dose: 100.0 mg/kg/injection, schedule: Q01DX Z (ip), vehicle: methylcellulose (MC)): 6 of 6 | survivor count [2]: 0 of 3

CCCCCCCCCCCC[N+](C)(C)C(C)Cc1ccccc1 (centres undefined)
survivor count [3]: 2 of 6 | survivor count (dose: 75.0 mg/kg/injection, schedule: Q01DX001 (ip), vehicle: saline): 0 of 6 | survivor count [4]: 0 of 6 | survivor count [5]: 0 of 6

CCCCN(CCCC)CCP(=O)(OCC)OCC
survivor count [2]: 0 of 3

CCCCCC(=O)C#Cc1ccccc1
survivor count (dose: 200.0 mg/kg/injection, schedule: Q01DX009 (ip), vehicle: other): 2 of 6 | survivor count (dose: 400.0 mg/kg/injection, schedule: Q01DX009 (ip), vehicle: other): 0 of 6

ClCCN(CCCl)CCCNCCCNc1c2ccccc2nc2c1ccc1ccccc12
survivor count (dose: 0.08 mg/kg/injection, schedule: Q01DX Z (ip), vehicle: saline): 0 of 6 | survivor count (dose: 0.16 mg/kg/injection, schedule: Q01DX Z (ip), vehicle: saline): 0 of 6 | survivor count (dose: 0.31 mg/kg/injection, schedule: Q01DX Z (ip), vehicle: saline): 0 of 6 | survivor count (dose: 0.62 mg/kg/injection, schedule: Q01DX Z (ip), vehicle: saline): 0 of 6 | survivor count (dose: 5.0 mg/kg/injection, schedule: Q01DX Z (ip), vehicle: saline): 4 of 6 | survivor count (dose: 7.5 mg/kg/injection, schedule: Q01DX Z (ip), vehicle: saline): 0 of 6

C=C1C(=O)O[C@H]2C[C@@]3(C)[C@H](O)CCC(=C)[C@@H]3[C@@H](OC(C)=O)[C@H]12
survivor count (dose: 200.0 mg/kg/injection, schedule: Q04DX002 (ip), vehicle: saline with Tween-80): 0 of 3 | survivor count [2]: 0 of 3

Oc1ccc(C2SC(c3ccc(O)cc3)SC(c3ccc(O)cc3)S2)cc1 (centres undefined)
survivor count (dose: 100.0 mg/kg/injection, schedule: Q01DX001 (ip), vehicle: carboxymethylcellulose (CMC)): 4 of 4

O=C(CC(O)c1ccccc1)Nc1cccnc1 (centres undefined)
survivor count (dose: 200.0 mg/kg/injection, schedule: Q01DX001 (ip), vehicle: other): 0 of 4 | survivor count (dose: 400.0 mg/kg/injection, schedule: Q01DX001 (ip), vehicle: other): 0 of 4

O=S1CCCO1 (centres undefined)
survivor count [4]: 1 of 6 | survivor count [5]: 0 of 6

C#CC(=O)CCCCCCl
survivor count (dose: 50.0 mg/kg/injection, schedule: Q04DX002 (sc), vehicle: olive oil, sesame oil, peanut oil): 0 of 3 | survivor count (dose: 100.0 mg/kg/injection, schedule: Q04DX002 (sc), vehicle: olive oil, sesame oil, peanut oil): 0 of 3 | survivor count (dose: 200.0 mg/kg/injection, schedule: Q04DX002 (sc), vehicle: olive oil, sesame oil, peanut oil): 0 of 3 | survivor count (dose: 400.0 mg/kg/injection, schedule: Q04DX002 (sc), vehicle: olive oil, sesame oil, peanut oil): 0 of 3

Nc1nc(N)c(-c2ccc(Cl)cc2)c(C(=O)O)n1
survivor count (dose: 200.0 mg/kg/injection, schedule: Q01DX009 (ip), vehicle: saline with Tween-80): 4 of 6 | survivor count [6]: 0 of 6

O=C1C=CC(=O)N1c1ccc(F)cc1 (tested in a mixture with another compound)
survivor count (dose: 100.0 mg/kg/injection, schedule: Q04DX003 (ip), vehicle: other): 6 of 6 | survivor count (dose: 400.0 mg/kg/injection, schedule: Q04DX003 (ip), vehicle: acetone): 6 of 6

CCCCCCOc1ccc(C(=N)N(CCCC)CCCC)c2ccccc12
survivor count [3]: 2 of 4 | survivor count (dose: 50.0 mg/kg/injection, schedule: Q01DX001 (ip), vehicle: saline): 1 of 5 | survivor count (dose: 80.0 mg/kg/injection, schedule: Q01DX001 (ip), vehicle: saline): 0 of 4 | survivor count (dose: 100.0 mg/kg/injection, schedule: Q01DX001 (ip), vehicle: saline): 1 of 4 | survivor count (dose: 200.0 mg/kg/injection, schedule: Q01DX001 (ip), vehicle: saline): 0 of 4 | survivor count (dose: 400.0 mg/kg/injection, schedule: Q01DX001 (ip), vehicle: saline): 0 of 4

CCOc1ccccc1NC(=O)c1ccc(Cl)cc1Cl
survivor count [7]: 6 of 6 | survivor count [1]: 6 of 6

O=NN(CCCl)C(=O)Nc1cccc(O)c1
T/C (dose: 2.5 mg/kg/injection, schedule: Q01DX009 (ip), vehicle: carboxymethylcellulose (CMC)): 126 % of control | T/C (dose: 5.0 mg/kg/injection, schedule: Q01DX009 (ip), vehicle: carboxymethylcellulose (CMC)): 147 % of control | T/C (dose: 10.0 mg/kg/injection, schedule: Q01DX009 (ip), vehicle: carboxymethylcellulose (CMC)): 136 % of control | T/C (dose: 15.0 mg/kg/injection, schedule: Q01DX001 (ip), vehicle: carboxymethylcellulose (CMC)): 138 % of control | T/C (dose: 17.0 mg/kg/injection, schedule: Q01DX001 (ip), vehicle: carboxymethylcellulose (CMC)): 130 % of control | T/C (dose: 26.0 mg/kg/injection, schedule: Q01DX001 (ip), vehicle: carboxymethylcellulose (CMC)): 127 % of control | T/C (dose: 40.0 mg/kg/injection, schedule: Q01DX001 (ip), vehicle: carboxymethylcellulose (CMC)): 138 % of control | survivor count (dose: 60.0 mg/kg/injection, schedule: Q01DX009 (ip), vehicle: carboxymethylcellulose (CMC)): 6 of 6 | survivor count (dose: 150.0 mg/kg/injection, schedule: Q01DX001 (ip), vehicle: carboxymethylcellulose (CMC)): 6 of 6 | survivor count (dose: 300.0 mg/kg/injection, schedule: Q01DX001 (ip), vehicle: carboxymethylcellulose (CMC)): 4 of 6

Cc1ncc(C(O)c2ccc(N(C)C)cc2)n1Cc1ccccc1 (centres undefined)
survivor count (dose: 400.0 mg/kg/injection, schedule: Q01DX009 (ip), vehicle: Klucel (hydroxypropylcellulose) (HPC)): 3 of 3

CCCN(CCC)N=Nc1ccccc1C(N)=O
survivor count [6]: 0 of 6

Cc1ccc(COc2ccc(Cl)cc2Cn2ccnc2)cc1
survivor count (dose: 200.0 mg/kg/injection, schedule: Q01DX009 (ip), vehicle: saline): 2 of 6 | survivor count (dose: 400.0 mg/kg/injection, schedule: Q01DX009 (ip), vehicle: saline): 0 of 6

Cc1ccc(NC(=O)Nc2ccc(C)c(NC(=O)Nc3ccc(C)c(Cl)c3)c2)cc1Cl
survivor count (dose: 200.0 mg/kg/injection, schedule: Q04DX003 (ip), vehicle: saline with Tween-80): 6 of 6 | survivor count (dose: 400.0 mg/kg/injection, schedule: Q04DX003 (ip), vehicle: saline with Tween-80): 6 of 6

NC(=O)C(c1ccccc1)N1CCCCC1 (centres undefined)
survivor count [7]: 1 of 6 | survivor count [1]: 0 of 6
